# The list is a part of this screen's results and no random one: it covers a few groups of compounds. Not every dose and run of a compound is shown. T/C: endpoint of the treated group in % of that of the vehicle group. Where survival is the endpoint, the PubChem record calls one and a half times the control and up active, and a quarter to a half above the control has no call in these data; cut-offs in other NCI protocols can differ. Schedule codes are those of the source, taken here to give the interval after Q, in days (D) or hours (H), and the number of doses after X. Some entries show no survivor count and are marked so; the dose need not have been tolerated. Some entries hold several experiments; their values stand side by side, smallest first.
# Test system: BDF1 mice, intracerebral B16 melanoma, median survival T/C
# Test: NCI In Vivo Anticancer Drug Screen. Data for tumor model B16 Melanoma (intracerebral) in B6D2F1 (BDF1) mice
# Conditions: T/C endpoint: median survival time, schedule: Q01DX005 (ip), vehicle: saline, higher T/C = longer survival
# Method: The antitumor activity of compounds was measured in mice bearing transplantable tumors. Survival or tumor size were measured and the results are expressed as the measurement made in the treated group (T) divided by the measurement made in the vehicle treated control group (C). The tumor model used in this assay is B16 Melanoma (intracerebral) in B6D2F1 (BDF1) mice
smiles,measurement,setting,value
CC(=O)OCC12CCC(C)=CC1OC1C(O)C(OC(C)=O)C2(C)C12CO2 (stereo not drawn),T/C,dose: 2.0 mg/kg/injection,102 [survivor count not shown] and 126 % of control [survivor count not shown]
same,T/C,dose: 4.0 mg/kg/injection,118 [survivor count not shown] and 131 % of control [survivor count not shown]
same,T/C,dose: 8.0 mg/kg/injection,124 % of control [survivor count not shown]

# — PubChem BioAssay AID196 (DTP/NCI, 2004)
